Results published in PubChem BioAssay AID2685 (National Center for Advancing Translational Sciences (NCATS), 2010).
Some of the results follow. These are further read-outs of the screen, such as a control signal, another cell line or another target. No call is given for them. The list favours compounds with an active or inconclusive main result. Potencies come from curve fits of mixed quality, noted in brackets.

Assay: qHTS Assay for Lipid Storage Modulators in Drosophila S3 Cells;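 for cell number change: cells counted by Cell Tracker Red CMTPX staining in the red channel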
Conditions: BODIPY lipid droplet fluorescence, 18-24 h; for cell number change: measured here: cell count max response, cells fed with added oleic acid
Procedure, shortened: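 Drosophila S3 cells loaded with oleic acid (400 uM, as added) and compounds at several concentrations; lipid droplets imaged by 488-nm laser-scanning cytometry, 500–530 nm intensity and object ratio to cell channel. Percent activity normalized to 20 uM Triacsin C.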

[1] = measured here: lipid fluorescence (Fed channel) AC50, cells fed with added oleic acid
[2] = measured here: cell number channel AC50, cells fed with added oleic acid

SMILES | cell number change [%] | AC50 [1] | AC50 [2]
CC1CCCN(C(=O)CCc2nnc(-c3ccc4c(c3)OCO4)o2)C1 (centres undefined) | 27.7 | 20.6 µM [rising, partial curve] | –
CCOC(=O)C1=C(C)N=C(SC)N(C)C1c1ccccc1 (centres undefined) | -18.2 | 0.291 µM [falling, full curve] | –
COc1ccc(NC(=O)CSc2nnc(-c3ccncc3)o2)c(OC)c1 | 2.75 | 0.0058 µM [rising, full curve, poor fit] | –
O=C(c1ccco1)N1CCN(Cc2cc(=O)c(OCc3ccccc3)co2)CC1 | -25 | – | 4.61 µM [falling, full curve, poor fit]
O=C(CN1CCC(NC(=O)c2ccc(F)cc2)CC1)NCc1ccccc1F | – | – | 0.651 µM [rising, full curve, poor fit]
CCOc1ccc(OCc2cccc(C(=O)N3CCCCCC3)c2)cc1 | -6.67 | – | –
CCCCC1(Cc2cccc([N+](=O)[O-])c2)C(=O)N(c2ccccc2)N(c2ccccc2)C1=O | -94.7 | – | 1.84 µM [rising, partial curve]
Cc1ccc(S(=O)(=O)N2CCN(CC(=O)N/N=C\c3ccc(O)c(O)c3)CC2)cc1 | 38.6 | 29.1 µM [rising, single point] | 18.4 µM [rising, partial curve, poor fit]
CCC(C)N(C(=O)CSc1ccc(NC(C)=O)cc1)C1CCS(=O)(=O)C1 (centres undefined) | -29.5 | 14.6 µM [falling, partial curve, poor fit] | 4.11 µM [falling, full curve, poor fit]
CC(Oc1ccc(Cl)cc1Cl)c1ccnc2nc(N3CCOCC3)nn12 (centres undefined) | 112 | – | –
COc1ccc(NC(=O)CSCC(=O)Nc2sccc2C#N)cc1 | – | 2.59 µM [rising, partial curve] | –
Cc1cccc(N2CCN(C(=O)c3c(C)nn(Cc4ccccc4Cl)c3C)CC2)c1C | – | 6.51 µM [rising, single point] | 6.51 µM [rising, single point]
CCCc1cc(=O)[nH]c(SCC(=O)NCCC2=CCCCC2)n1 | 11.6 | 3.66 µM [falling, single point] | –
COc1ccc(-n2c(=S)[nH]c3cc(C(=O)Nc4ccccc4OC)ccc3c2=O)c(OC)c1 | 20.9 | – | –
Cc1ccc([N+](=O)[O-])cc1S(=O)(=O)Nc1ccc(C(=O)N2CCN(C(=O)c3ccco3)CC2)cc1 | -61.5 | 0.206 µM [falling, full curve] | 7.31 µM [falling, partial curve]
O=C1CC(c2ccccc2)CC(=O)N1c1ccc(C(F)(F)F)cc1 | -52.9 | – | 0.58 µM [falling, partial curve, poor fit]
Cn1c(=O)oc2cc(S(=O)(=O)NCCN3CCN(c4ccccc4)CC3)ccc21 | -35.5 | 0.00411 µM [falling, full curve, poor fit] | 2.31 µM [falling, partial curve, poor fit]
CCOC(=O)C(C)n1ncn2cccc2c1=O (centres undefined) | 0.176 | 0.651 µM [rising, single point] | –
O=C(/C=C/Nc1ccccc1)c1ccc(Oc2ncccn2)cc1 | 18.4 | 14.6 µM [rising, partial curve, poor fit] | –
COc1ccc(-c2nc(N)nc(C)c2Oc2ccccc2Br)c(O)c1 | 11.3 | 6.51 µM [falling, full curve] | 5.17 µM [falling, partial curve]

SMILES | cell number change [%] | AC50 [1] | AC50 [2]
COC(=O)/C=C(\C)NC(=O)c1ccccc1Cl | -9.78 | – | –
Cc1nn(CC(=O)OCC(=O)Nc2ccccc2[N+](=O)[O-])c(C)c1[N+](=O)[O-] | 23 | 0.00461 µM [falling, full curve, poor fit] | –
O=C(NCc1ccc2c(c1)OCO2)c1ccc(N2C(=O)C3CCCCC3C2=O)cc1 (centres undefined) | 65.5 | – | 23.1 µM [rising, single point]
O=C(c1ccccc1F)N1C(=O)c2cccc3cccc1c23 | 8.66 | 3.55 µM [rising, partial curve, poor fit] | –
CN1CCN(c2ccc(Cl)cc2NC(=O)CN2C(=O)NC(C)(c3ccccc3)C2=O)CC1 (centres undefined) | – | 6.51 µM [falling, single point] | –
CC(=O)N1c2ccc(S(=O)(=O)N3CCCC(C(=O)NCc4ccc(Cl)cc4)C3)cc2CC1C (centres undefined) | -33.8 | 29.1 µM [falling, single point] | 4.61 µM [falling, partial curve]
CN(C)C1(CNC(=O)C2CCN(S(=O)(=O)c3cccc(C(F)(F)F)c3)CC2)CCCCC1 | 30 | 29.1 µM [rising, single point] | –
Nc1nc(SCc2ccc(Cl)cc2Cl)n[nH]1 | 22.5 | 0.13 µM [rising, full curve, poor fit] | 0.164 µM [rising, full curve, poor fit]
CC(C)c1ccc(N2C=Nc3ccc(C(C)C)cc3C2)cc1 | -37.4 | 11.6 µM [falling, partial curve] | –
N#CCCC(CCC#N)(CCC#N)c1cc[n+](CCc2ccccn2)cc1 | -23.4 | 18.4 µM [falling, single point] | –
Cc1ccc(C(=O)CCC(=O)N(C)CC(=O)Nc2c(Cl)cccc2Cl)cc1 | 43 | 4.11 µM [rising, partial curve, poor fit] | 8.2 µM [rising, partial curve]
Cc1ccc(C(C)C)c(OCC(=O)N/N=C/C2CCCCC2)c1 | – | – | 6.51 µM [rising, single point]
CCOC(=O)C1=C(C)N=c2s/c(=C/c3ccc(OCC(=O)O)cc3)c(=O)n2C1c1ccc(OC)cc1OC (centres undefined) | – | 23.1 µM [falling, single point] | –
O=C(NCCN1CCOCC1)C1CC(=O)N(c2ccc(F)c(Cl)c2)C1 (centres undefined) | – | 0.58 µM [falling, single point] | –
CC(=O)Nc1ccc(S(=O)(=O)NC(C)C(=O)OCCOc2ccc(F)cc2)cc1 (centres undefined) | -8.02 | – | –
O=C(Cc1ccccc1)N/N=C/c1cc(Br)cc(Cl)c1O | 12.1 | – | –
COc1ccc(-c2nnc(SCC(=O)NC3CC3)o2)c(OC)c1 | -68 | – | 5.8 µM [falling, partial curve, poor fit]
CC12COC3(C(=O)Nc4ccc5ccccc5c4)CC1CCC32C (centres undefined) | 81.3 | – | –
O=C(CSc1nc(-c2ccccc2)cc(=O)[nH]1)NCc1ccc2c(c1)OCO2 | 9.4 | – | –
COc1ccc(C(=O)N(Cc2ccccc2)c2cccc(C)c2)c(OC)c1OC | 27 | – | –

Reformatted with tabs: 16 of the compounds above
SMILES	cell number change [%]	AC50 [1]	AC50 [2]
Cc1nn(CC(=O)OCC(=O)Nc2ccccc2[N+](=O)[O-])c(C)c1[N+](=O)[O-]	23	0.00461 µM [falling, full curve, poor fit]	–
O=C(NCc1ccc2c(c1)OCO2)c1ccc(N2C(=O)C3CCCCC3C2=O)cc1 (centres undefined)	65.5	–	23.1 µM [rising, single point]
CN1CCN(c2ccc(Cl)cc2NC(=O)CN2C(=O)NC(C)(c3ccccc3)C2=O)CC1 (centres undefined)	–	6.51 µM [falling, single point]	–
CC(=O)N1c2ccc(S(=O)(=O)N3CCCC(C(=O)NCc4ccc(Cl)cc4)C3)cc2CC1C (centres undefined)	-33.8	29.1 µM [falling, single point]	4.61 µM [falling, partial curve]
CN(C)C1(CNC(=O)C2CCN(S(=O)(=O)c3cccc(C(F)(F)F)c3)CC2)CCCCC1	30	29.1 µM [rising, single point]	–
Nc1nc(SCc2ccc(Cl)cc2Cl)n[nH]1	22.5	0.13 µM [rising, full curve, poor fit]	0.164 µM [rising, full curve, poor fit]
CC(C)c1ccc(N2C=Nc3ccc(C(C)C)cc3C2)cc1	-37.4	11.6 µM [falling, partial curve]	–
N#CCCC(CCC#N)(CCC#N)c1cc[n+](CCc2ccccn2)cc1	-23.4	18.4 µM [falling, single point]	–
Cc1ccc(C(C)C)c(OCC(=O)N/N=C/C2CCCCC2)c1	–	–	6.51 µM [rising, single point]
CCOC(=O)C1=C(C)N=c2s/c(=C/c3ccc(OCC(=O)O)cc3)c(=O)n2C1c1ccc(OC)cc1OC (centres undefined)	–	23.1 µM [falling, single point]	–
O=C(NCCN1CCOCC1)C1CC(=O)N(c2ccc(F)c(Cl)c2)C1 (centres undefined)	–	0.58 µM [falling, single point]	–
CC(=O)Nc1ccc(S(=O)(=O)NC(C)C(=O)OCCOc2ccc(F)cc2)cc1 (centres undefined)	-8.02	–	–
O=C(Cc1ccccc1)N/N=C/c1cc(Br)cc(Cl)c1O	12.1	–	–
COc1ccc(-c2nnc(SCC(=O)NC3CC3)o2)c(OC)c1	-68	–	5.8 µM [falling, partial curve, poor fit]
CC12COC3(C(=O)Nc4ccc5ccccc5c4)CC1CCC32C (centres undefined)	81.3	–	–
O=C(CSc1nc(-c2ccccc2)cc(=O)[nH]1)NCc1ccc2c(c1)OCO2	9.4	–	–

(continued)

SMILES | cell number change [%] | AC50 [1] | AC50 [2]
CC(=O)Nc1cccc(NC(=O)CS(=O)(=O)c2cn(CC(=O)N3CCOCC3)c3ccccc23)c1 | -19.6 | – | 0.103 µM [falling, full curve, poor fit]
CN(C)CCNC(=O)c1ccccc1 | -34.7 | – | 16.4 µM [falling, single point]
O=C(CS(=O)(=O)c1cn(Cc2cccc(F)c2)c2ccccc12)N1CCOCC1 | -0.871 | 6.51 µM [falling, single point] | –
CN(C)C(=C(C#N)C#N)N1CCN(c2ccc(Cl)c(Cl)c2)CC1 | -15.2 | 32.6 µM [falling, single point] | –
Cc1ccc(NC(=O)C2CCCN2S(=O)(=O)c2cccc3cccnc23)c(C)c1 (centres undefined) | -13.5 | – | –
COc1ccc(C2CC(c3ccc(F)cc3)Nc3nc(N)nn32)cc1 (centres undefined) | 11.3 | 0.103 µM [rising, partial curve, poor fit] | –
COc1ccc(CCC(=O)Nc2ccc(N3CCOCC3)cc2)cc1 | – | – | 6.51 µM [falling, single point]
CCCOc1ccc(C2C(=O)N(C3CCCCCC3)CC(=O)N2Cc2ccco2)cc1OC (centres undefined) | 91.6 | – | 20.6 µM [rising, partial curve]
CC(C)CNC(=O)CN1C(=O)NC(Cc2c[nH]c3ccccc23)C1=O (centres undefined) | -30.6 | – | 23.1 µM [falling, single point]
O=C(O)c1[nH]nc2c1COc1ccccc1-2 | -146 | 25.9 µM [falling, partial curve] | 25.9 µM [falling, partial curve]
Cc1cc(Br)ccc1NC(=O)CNC(=O)COc1ccccc1C | 25 | – | –
CC(C)(C)c1ccc(NC(=O)N2CCCN(c3ccc([N+](=O)[O-])cn3)CC2)cc1 | -26.6 | 23.1 µM [falling, single point] | –
COCCN(CC(=O)NCC1CCCO1)C(=O)CCC(=O)Nc1cc(C)on1 (centres undefined) | 5.52 | 0.0731 µM [falling, full curve, poor fit] | –
O=S(=O)(Nc1ncccn1)c1ccc(NC(=S)Nc2ccccc2)cc1 | 90.9 | 25.9 µM [rising, partial curve] | 29.1 µM [rising, single point]
Cn1c2ccccc2c(=O)c2cc(C#CC3(O)CCCCC3)ccc21 | -7.49 | 18.4 µM [falling, single point] | –
CC1CCN(C(=S)c2ccc(O)cc2)CC1 | 16 | 0.00517 µM [rising, full curve, poor fit] | –
COc1ccc(NC(=O)COc2ccc(-n3cnnn3)cc2)cc1OC | -19.7 | 8.2 µM [falling, partial curve] | –
CC(C)N1CCc2c(sc(NC(=O)c3ccc(S(=O)(=O)N(C)CC4CCCO4)cc3)c2C(N)=O)C1 (centres undefined) | – | 5.17 µM [falling, full curve] | –
CC(C)OC(=O)c1cc(NC(=O)c2nn(C)cc2Br)cc(C(=O)OC(C)C)c1 | -0.123 | 0.58 µM [rising, full curve] | –
